Laboratory results reported in the supplement of paper PMC12067093, “Discovery and optimisation of a covalent ligand for TRIM25 and its application to targeted protein ubiquitination” (Chemical Science, 2025).
The list shows a part of the results.

Protein sequences, listed by entry. Tags and fused reporters are not part of them. Lines headed by an entry give the natural chain unless they say otherwise; changes in a name come on top.
UniProt Q8N8D1: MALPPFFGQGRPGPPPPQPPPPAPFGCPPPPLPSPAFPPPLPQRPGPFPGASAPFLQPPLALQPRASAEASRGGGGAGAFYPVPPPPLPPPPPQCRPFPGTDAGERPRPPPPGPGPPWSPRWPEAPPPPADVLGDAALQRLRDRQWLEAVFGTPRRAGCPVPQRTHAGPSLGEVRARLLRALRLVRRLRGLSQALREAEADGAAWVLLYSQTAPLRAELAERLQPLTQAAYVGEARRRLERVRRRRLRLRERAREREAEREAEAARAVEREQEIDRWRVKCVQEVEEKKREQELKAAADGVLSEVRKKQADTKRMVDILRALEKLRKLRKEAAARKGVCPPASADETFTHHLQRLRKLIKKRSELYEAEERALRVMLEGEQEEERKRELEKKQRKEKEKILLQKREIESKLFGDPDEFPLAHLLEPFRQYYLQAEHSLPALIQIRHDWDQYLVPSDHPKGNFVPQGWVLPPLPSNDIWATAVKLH
UniProt Q9NR12, whole entry, looked up: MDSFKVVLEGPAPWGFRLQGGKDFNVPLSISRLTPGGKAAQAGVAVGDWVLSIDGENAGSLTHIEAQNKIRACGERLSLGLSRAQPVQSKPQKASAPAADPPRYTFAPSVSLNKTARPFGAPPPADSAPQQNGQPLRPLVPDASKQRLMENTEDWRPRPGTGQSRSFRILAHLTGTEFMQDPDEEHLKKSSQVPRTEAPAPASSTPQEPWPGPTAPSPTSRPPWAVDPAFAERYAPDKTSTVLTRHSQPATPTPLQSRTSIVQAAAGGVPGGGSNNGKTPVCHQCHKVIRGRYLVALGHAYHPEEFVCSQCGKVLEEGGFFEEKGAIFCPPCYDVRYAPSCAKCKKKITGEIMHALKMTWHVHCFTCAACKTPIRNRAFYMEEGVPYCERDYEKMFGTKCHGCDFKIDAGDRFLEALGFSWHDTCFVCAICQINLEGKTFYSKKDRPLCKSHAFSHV
UniProt Q6P996: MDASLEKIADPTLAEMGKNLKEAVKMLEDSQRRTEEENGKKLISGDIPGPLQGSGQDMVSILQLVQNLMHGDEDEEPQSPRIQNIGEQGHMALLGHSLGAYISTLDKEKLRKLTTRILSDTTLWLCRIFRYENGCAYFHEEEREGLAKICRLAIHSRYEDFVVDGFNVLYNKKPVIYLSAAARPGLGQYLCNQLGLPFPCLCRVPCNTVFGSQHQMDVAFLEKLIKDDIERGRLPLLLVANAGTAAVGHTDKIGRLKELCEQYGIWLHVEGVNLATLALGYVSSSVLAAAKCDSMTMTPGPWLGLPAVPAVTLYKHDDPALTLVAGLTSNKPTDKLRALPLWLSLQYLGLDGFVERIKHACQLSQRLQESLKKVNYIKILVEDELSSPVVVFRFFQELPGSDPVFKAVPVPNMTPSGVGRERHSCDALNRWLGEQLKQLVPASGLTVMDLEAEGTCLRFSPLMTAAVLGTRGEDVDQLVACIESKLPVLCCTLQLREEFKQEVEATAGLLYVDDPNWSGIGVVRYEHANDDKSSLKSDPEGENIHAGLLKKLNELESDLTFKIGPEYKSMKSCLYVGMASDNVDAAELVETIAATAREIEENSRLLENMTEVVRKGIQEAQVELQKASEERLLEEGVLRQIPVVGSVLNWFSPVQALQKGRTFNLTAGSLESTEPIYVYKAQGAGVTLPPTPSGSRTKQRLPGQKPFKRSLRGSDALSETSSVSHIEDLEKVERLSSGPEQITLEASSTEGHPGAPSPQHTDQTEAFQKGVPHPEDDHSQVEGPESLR
UniProt Q9BUH6, whole entry, looked up: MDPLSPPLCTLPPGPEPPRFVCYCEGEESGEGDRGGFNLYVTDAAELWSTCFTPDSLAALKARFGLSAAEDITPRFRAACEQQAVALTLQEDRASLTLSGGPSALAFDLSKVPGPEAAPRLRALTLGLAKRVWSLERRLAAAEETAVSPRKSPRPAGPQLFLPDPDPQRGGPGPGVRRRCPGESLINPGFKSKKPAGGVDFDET
UniProt Q29RF7: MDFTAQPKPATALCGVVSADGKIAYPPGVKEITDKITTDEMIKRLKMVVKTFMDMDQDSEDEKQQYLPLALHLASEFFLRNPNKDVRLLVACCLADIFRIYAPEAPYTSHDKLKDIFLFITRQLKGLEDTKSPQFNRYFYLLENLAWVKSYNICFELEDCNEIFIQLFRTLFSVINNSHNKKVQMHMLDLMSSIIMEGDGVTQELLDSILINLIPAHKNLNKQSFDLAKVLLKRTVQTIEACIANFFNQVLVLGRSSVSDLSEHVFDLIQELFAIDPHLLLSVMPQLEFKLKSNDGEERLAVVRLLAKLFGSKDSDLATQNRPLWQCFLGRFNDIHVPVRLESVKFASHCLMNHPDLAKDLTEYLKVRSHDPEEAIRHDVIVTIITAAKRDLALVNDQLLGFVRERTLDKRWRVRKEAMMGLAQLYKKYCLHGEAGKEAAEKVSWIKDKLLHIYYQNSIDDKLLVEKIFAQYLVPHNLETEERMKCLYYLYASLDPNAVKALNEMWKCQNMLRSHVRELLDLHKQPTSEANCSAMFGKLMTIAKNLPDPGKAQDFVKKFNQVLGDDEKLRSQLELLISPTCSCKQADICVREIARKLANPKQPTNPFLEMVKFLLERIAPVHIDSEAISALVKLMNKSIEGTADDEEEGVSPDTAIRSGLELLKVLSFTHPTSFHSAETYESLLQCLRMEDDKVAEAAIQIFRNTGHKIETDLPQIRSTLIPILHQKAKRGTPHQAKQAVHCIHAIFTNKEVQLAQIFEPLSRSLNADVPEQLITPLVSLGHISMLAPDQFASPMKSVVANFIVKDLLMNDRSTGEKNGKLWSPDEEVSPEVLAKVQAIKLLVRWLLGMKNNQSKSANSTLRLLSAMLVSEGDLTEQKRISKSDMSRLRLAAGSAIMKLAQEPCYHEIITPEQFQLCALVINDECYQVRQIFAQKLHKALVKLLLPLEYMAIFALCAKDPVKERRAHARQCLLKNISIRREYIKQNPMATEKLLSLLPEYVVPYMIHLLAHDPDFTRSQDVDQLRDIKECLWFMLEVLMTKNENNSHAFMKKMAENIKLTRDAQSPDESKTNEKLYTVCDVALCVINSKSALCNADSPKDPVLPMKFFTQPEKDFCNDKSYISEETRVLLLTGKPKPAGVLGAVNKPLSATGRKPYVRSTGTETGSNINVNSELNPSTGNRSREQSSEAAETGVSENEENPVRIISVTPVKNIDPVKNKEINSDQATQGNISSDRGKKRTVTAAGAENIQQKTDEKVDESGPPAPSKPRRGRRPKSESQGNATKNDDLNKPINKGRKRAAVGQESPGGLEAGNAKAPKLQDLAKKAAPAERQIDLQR
UniProt P40424: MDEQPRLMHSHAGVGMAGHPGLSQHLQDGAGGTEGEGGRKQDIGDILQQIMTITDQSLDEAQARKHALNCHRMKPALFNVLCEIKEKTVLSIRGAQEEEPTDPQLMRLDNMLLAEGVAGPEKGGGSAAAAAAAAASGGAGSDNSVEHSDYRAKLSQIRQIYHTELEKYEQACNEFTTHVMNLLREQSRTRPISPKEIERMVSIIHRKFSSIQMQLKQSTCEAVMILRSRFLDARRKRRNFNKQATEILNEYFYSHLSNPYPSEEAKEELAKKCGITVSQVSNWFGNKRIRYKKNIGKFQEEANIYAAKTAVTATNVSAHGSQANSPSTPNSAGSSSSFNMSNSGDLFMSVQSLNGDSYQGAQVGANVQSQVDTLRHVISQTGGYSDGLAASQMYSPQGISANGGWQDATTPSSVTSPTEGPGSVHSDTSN
UniProt Q9UKL6: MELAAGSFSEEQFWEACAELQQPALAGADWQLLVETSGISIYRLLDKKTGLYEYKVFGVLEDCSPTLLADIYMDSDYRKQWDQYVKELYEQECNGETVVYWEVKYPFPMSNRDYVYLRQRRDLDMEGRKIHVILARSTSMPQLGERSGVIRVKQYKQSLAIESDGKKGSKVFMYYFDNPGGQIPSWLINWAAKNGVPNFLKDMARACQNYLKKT
UniProt Q5JVF3: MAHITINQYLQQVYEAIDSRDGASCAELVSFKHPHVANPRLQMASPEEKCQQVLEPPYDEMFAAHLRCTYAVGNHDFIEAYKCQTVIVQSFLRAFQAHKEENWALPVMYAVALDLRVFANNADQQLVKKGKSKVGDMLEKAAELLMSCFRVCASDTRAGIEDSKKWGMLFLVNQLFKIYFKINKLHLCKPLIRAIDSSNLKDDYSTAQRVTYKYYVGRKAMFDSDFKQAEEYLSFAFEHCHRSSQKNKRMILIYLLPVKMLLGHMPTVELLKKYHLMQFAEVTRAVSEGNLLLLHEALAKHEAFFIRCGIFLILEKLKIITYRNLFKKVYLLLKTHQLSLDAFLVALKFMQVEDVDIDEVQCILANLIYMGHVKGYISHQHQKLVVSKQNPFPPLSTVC
UniProt Q8N3A8: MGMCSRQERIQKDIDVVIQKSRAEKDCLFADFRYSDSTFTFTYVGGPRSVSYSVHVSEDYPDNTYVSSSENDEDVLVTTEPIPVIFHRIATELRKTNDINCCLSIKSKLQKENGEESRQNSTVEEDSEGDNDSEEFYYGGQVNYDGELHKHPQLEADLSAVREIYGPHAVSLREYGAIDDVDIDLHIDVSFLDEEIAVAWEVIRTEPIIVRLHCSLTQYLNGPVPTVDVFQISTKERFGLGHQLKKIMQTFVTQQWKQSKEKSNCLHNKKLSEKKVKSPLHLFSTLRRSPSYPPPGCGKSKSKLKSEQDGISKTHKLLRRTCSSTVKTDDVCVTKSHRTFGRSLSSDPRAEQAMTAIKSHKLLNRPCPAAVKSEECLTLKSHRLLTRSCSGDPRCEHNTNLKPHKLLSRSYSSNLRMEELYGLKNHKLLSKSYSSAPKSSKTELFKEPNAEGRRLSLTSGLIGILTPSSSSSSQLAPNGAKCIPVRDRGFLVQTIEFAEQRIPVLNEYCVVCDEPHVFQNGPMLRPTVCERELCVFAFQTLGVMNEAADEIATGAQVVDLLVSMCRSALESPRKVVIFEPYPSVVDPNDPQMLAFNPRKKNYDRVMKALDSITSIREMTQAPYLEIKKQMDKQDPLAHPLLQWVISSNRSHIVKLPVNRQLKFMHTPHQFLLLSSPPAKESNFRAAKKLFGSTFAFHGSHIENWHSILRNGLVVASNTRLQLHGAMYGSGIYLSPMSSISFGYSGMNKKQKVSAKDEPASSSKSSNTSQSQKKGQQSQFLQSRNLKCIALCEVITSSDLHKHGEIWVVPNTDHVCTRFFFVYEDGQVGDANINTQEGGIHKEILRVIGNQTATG
UniProt Q9BVG4: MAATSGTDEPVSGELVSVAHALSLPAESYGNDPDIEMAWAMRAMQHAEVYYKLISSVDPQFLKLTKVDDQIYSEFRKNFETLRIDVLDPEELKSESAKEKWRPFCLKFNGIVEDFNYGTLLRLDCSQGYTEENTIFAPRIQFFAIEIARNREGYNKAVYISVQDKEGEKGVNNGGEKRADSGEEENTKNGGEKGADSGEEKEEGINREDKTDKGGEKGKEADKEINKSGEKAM
UniProt P49585: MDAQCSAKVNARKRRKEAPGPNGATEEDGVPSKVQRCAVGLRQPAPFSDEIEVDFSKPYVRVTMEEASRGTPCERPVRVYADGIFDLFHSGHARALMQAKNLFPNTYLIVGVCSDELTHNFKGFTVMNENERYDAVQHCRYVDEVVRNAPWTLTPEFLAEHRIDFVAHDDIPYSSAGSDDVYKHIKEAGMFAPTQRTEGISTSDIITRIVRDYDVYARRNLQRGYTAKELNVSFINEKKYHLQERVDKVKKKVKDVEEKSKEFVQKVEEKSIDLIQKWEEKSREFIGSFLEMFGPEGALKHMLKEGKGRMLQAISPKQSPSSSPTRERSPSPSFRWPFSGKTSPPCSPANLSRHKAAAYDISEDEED
UniProt Q15084: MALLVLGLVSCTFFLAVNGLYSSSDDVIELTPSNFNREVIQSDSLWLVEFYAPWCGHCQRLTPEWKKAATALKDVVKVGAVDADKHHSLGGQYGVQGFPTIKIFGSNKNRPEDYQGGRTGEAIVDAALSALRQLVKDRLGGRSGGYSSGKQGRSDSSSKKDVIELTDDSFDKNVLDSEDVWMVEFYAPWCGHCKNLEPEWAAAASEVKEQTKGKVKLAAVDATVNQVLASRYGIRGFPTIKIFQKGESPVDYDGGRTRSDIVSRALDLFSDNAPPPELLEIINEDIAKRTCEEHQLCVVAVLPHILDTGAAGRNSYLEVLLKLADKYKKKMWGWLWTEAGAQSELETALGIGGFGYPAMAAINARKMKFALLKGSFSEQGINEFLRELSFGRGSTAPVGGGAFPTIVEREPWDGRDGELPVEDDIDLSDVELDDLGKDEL
UniProt P08559, whole entry, looked up: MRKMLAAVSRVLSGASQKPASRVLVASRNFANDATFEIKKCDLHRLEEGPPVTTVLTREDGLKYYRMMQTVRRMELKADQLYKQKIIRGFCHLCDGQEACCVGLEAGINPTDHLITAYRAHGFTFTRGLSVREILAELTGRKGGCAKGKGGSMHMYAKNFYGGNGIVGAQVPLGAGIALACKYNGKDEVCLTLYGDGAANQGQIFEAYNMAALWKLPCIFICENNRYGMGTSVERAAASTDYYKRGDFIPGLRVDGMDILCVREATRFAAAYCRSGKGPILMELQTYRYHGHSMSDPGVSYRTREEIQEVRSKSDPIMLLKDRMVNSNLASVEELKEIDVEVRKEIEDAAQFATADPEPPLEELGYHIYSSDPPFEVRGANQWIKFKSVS

Compound: Cc1cc(ccc1-c1ccccc1)C(=O)N1CCCN(CC1)C(=O)CCl [compound 10]
Experiment: probe-labelled cysteine peptide fold change vs DMSO (competition) (log2 fold change); higher = less target engagement (more negative = stronger competition)
Conditions: THP-1, incubation time: 4 h
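Note: competitive profiling in live THP-1 cells: cysteine peptides tagged with an iodoacetamide desthiobiotin (IA-DTB) probe, intensity after compound treatment relative to DMSO-treated cells.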

| Target | probe-labelled cysteine peptide fold change (10 µM) | probe-labelled cysteine peptide fold change (50 µM) |
| --- | --- | --- |
| PEAK3_Q6ZS72_107_SQAAVGPACLPAELTFGPADAPLGLSLR (UniProt Q6ZS72) | -0.373 | -0.749 |
| PDCD7_Q8N8D1_339_GVCPPASADETFTHHLQR (UniProt Q8N8D1) | 0.0422 | 0.472 |
| PDLIM7_Q9NR12_282+285_TPVCHQCHK (UniProt Q9NR12) | -0.0326 | -0.479 |
| PDXDC1_Q6P996_481_GEDVDQLVACIESK (UniProt Q6P996) | 0.0475 | -0.348 |
| PCDH17_O14917_335_DLGPNPIPAHCK (UniProt O14917) | -0.0867 | -0.403 |
| PDS5B_Q9NTI5_573_QLEVLVSPTCSCK (UniProt Q9NTI5) | 0.0872 | 0.0208 |
| PAXX_Q9BUH6_9_MDPLSPPLCTLPPGPEPPR (UniProt Q9BUH6) | -0.208 | -0.123 |
| PDS5A_Q29RF7_350_FASHCLMNHPDLAK (UniProt Q29RF7) | -0.0425 | -0.219 |
| PBX1_P40424_172_YEQACNEFTTHVMNLLR (UniProt P40424) | 0.0689 | 0.267 |
| PCTP_Q9UKL6_93_ELYEQECNGETVVYWEVK (UniProt Q9UKL6) | 0.0726 | 0.0148 |
| PDXDC1_Q6P996_361_HACQLSQR (UniProt Q6P996) | 0.0606 | -0.0896 |
| PDXDC1_Q6P996_573_SCLYVGMASDNVDAAELVETIAATAR (UniProt Q6P996) | 0.0729 | 0.0799 |
| PCID2_Q5JVF3_25_DGASCAELVSFK (UniProt Q5JVF3) | -0.229 | -0.162 |
| PARP8_Q8N3A8_27_DCLFADFR (UniProt Q8N3A8) | 0.0942 | 0.203 |
| PDCD11_Q14690_81_EKFEILSVESLCEGMR (UniProt Q14690) | -0.135 | -0.379 |
| PBDC1_Q9BVG4_125_LDCSQGYTEENTIFAPR (UniProt Q9BVG4) | 0.12 | 0.256 |
| PCYT1A_P49585_139_YDAVQHCR (UniProt P49585) | 0.0832 | 0.236 |
| PDIA6_Q15084_58_EVIQSDSLWLVEFYAPWCGHCQR (UniProt Q15084) | -0.0772 | -0.194 |
| PDHA1_P08559_261_RGDFIPGLRVDGMDILCVR (UniProt P08559) | -0.351 | -0.614 |
| PDHB_P11177_161+169_GPNGASAGVAAQHSQCFAAWYGHCPGLK (UniProt P11177) | -0.208 | -0.713 |

Whole records, quoted from the list.
PBX1_P40424_172_YEQACNEFTTHVMNLLR (UniProt P40424) reads probe-labelled cysteine peptide fold change (10 µM): 0.0689; probe-labelled cysteine peptide fold change (50 µM): 0.267
PDLIM7_Q9NR12_282+285_TPVCHQCHK (UniProt Q9NR12) reads probe-labelled cysteine peptide fold change (10 µM): -0.0326; probe-labelled cysteine peptide fold change (50 µM): -0.479
